No constants are given. Whether binding was seen depends on the method and setting. In cells and extracts the contact can be indirect. Some binding calls cover weakened binding; strength is not graded here.
Target: protein tyrosine phosphatase sigma (PTPσ) (mouse (endogenous in brain)) (UniProt B0V2N1)
Assay: co-IP; crude synaptosomes from 4-week-old WT and homozygous KI littermate mouse brains lysed in cold lysis buffer; pre-cleared supernatant incubated with Protein G Sepharose beads coated with anti-PTPσ antibody (clone 17G7.2) overnight at 4 °C; immunoblotting for TrkC and PTPσ

Sequences of proteins named here, by UniProt entry; tags and fusion partners are left off. A change or cut given only in a name is not applied to a line headed by its entry. A line that says so, or that is headed by a name, gives the form on record, which may keep a tag or linker. Residues count along the entry.
UniProt B0V2N1, residues 30-1907: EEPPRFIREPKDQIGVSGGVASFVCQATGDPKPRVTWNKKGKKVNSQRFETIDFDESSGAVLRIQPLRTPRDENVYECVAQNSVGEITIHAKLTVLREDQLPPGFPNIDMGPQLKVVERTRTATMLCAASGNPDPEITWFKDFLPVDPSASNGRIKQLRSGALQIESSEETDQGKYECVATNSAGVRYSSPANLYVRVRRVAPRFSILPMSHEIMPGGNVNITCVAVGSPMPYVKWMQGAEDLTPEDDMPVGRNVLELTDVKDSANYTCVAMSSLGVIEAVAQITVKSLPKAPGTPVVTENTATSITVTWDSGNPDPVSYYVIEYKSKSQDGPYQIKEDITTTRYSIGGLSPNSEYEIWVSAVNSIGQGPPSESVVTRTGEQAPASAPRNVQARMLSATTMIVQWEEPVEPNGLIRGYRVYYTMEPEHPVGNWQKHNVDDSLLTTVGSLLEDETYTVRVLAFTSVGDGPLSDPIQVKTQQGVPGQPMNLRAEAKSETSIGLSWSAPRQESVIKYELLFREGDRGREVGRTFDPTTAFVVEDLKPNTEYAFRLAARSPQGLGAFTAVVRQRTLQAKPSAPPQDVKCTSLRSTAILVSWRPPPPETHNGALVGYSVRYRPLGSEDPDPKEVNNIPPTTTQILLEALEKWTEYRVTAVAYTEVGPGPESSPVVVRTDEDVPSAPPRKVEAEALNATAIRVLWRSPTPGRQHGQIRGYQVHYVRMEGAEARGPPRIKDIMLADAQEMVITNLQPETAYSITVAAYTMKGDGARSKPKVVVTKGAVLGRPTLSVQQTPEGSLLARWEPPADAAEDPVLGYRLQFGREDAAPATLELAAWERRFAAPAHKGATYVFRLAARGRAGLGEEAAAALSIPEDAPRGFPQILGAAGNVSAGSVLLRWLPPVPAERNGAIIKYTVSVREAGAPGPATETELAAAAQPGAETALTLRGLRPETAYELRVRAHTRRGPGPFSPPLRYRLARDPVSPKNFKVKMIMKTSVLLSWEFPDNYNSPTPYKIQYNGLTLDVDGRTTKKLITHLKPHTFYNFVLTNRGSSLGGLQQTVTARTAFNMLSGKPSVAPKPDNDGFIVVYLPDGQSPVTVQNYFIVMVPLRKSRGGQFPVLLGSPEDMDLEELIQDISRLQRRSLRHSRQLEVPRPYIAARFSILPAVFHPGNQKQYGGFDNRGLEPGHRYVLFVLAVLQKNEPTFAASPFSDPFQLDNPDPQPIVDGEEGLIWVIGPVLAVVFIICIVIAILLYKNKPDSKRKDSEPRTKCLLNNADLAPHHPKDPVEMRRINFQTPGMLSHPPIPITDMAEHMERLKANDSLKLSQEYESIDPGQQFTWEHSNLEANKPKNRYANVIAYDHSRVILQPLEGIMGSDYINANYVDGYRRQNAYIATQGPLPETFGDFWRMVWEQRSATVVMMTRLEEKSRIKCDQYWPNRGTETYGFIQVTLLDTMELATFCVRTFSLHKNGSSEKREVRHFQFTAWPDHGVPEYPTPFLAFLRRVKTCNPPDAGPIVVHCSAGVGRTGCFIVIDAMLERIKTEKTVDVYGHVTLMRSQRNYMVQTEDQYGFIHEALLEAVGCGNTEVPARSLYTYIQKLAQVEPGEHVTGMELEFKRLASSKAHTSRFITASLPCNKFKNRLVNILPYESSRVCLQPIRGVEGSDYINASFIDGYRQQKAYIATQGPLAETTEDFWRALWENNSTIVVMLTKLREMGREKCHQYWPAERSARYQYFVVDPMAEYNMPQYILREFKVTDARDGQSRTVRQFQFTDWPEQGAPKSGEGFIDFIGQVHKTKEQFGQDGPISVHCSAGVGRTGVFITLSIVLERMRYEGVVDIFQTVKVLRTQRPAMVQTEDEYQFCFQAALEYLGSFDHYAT
TrkC TK+ (tropomyosin receptor kinase C, isoform with the intracellular tyrosine kinase domain), wild type (Q6VNS1, residues 32-825): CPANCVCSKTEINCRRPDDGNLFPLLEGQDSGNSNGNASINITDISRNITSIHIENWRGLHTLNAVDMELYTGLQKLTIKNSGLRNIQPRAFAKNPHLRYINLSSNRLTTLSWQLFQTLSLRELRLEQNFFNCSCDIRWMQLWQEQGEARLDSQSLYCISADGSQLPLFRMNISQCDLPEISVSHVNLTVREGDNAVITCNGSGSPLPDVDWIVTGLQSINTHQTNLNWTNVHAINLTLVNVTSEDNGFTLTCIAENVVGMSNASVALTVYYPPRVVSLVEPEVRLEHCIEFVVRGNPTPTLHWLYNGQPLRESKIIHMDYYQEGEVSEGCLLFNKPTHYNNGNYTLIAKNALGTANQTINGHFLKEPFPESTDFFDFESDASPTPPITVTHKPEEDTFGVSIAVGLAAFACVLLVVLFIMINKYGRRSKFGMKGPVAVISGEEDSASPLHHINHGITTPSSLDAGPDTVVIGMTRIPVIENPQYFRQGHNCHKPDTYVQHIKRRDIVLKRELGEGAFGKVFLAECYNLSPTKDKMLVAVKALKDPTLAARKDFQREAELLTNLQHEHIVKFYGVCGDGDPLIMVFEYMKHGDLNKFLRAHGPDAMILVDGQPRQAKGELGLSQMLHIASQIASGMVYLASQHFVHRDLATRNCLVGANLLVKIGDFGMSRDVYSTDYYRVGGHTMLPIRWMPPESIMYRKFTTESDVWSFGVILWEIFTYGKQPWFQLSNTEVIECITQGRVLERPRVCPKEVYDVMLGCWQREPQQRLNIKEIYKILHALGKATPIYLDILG
TrkC TK+ D240A;D242A (knock-in mutant) (Q6VNS1, form named): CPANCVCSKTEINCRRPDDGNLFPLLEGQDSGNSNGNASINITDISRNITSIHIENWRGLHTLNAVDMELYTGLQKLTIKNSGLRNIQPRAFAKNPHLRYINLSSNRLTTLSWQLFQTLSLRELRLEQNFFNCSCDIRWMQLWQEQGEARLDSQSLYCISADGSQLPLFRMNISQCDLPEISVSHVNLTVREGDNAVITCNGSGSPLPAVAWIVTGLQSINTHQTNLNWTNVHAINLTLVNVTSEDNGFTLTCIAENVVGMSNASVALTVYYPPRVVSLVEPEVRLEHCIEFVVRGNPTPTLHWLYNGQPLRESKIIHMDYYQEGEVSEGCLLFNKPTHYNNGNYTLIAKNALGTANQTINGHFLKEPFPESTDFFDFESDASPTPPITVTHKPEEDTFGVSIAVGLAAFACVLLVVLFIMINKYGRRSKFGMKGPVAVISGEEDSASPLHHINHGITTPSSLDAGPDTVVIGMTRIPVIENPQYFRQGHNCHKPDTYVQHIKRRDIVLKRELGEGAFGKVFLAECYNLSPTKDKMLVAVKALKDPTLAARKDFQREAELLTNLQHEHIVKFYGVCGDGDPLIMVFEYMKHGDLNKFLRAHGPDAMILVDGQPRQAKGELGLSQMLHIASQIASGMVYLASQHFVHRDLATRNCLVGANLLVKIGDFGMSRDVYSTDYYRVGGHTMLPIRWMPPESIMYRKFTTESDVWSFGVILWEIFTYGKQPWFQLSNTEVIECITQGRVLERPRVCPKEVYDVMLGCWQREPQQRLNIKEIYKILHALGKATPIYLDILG

Substance	binding
TrkC TK+ (tropomyosin receptor kinase C, isoform with the intracellular tyrosine kinase domain), wild type (from UniProt Q6VNS1 32-825)	binds
TrkC TK+ D240A;D242A (knock-in mutant) (from UniProt Q6VNS1 32-825) (receptor)	no binding
